# Data reported in PubChem BioAssay AID1259354 (Paczesny and Yang Labs, IUPUI and University of Michigan, 2018).
# Sequences of proteins named here, by UniProt entry; tags and fusion partners are left off. A change or cut given only in a name is not applied to a line headed by its entry.
# UniProt Q01638: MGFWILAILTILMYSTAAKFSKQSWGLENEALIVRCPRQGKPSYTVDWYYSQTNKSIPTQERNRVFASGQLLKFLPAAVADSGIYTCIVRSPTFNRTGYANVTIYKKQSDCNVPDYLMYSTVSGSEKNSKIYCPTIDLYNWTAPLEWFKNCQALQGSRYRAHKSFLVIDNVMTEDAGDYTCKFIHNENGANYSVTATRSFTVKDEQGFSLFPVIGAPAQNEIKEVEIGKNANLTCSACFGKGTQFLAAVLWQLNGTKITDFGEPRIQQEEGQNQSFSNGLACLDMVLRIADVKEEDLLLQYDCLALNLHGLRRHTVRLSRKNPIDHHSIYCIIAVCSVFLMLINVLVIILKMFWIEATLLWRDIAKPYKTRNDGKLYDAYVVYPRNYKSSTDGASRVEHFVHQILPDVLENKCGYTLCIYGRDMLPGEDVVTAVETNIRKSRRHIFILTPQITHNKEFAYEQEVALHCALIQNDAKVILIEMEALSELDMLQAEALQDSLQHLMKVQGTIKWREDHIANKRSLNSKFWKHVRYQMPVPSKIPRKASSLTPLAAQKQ
# Values joined by “and” are separate entries in the source; they are usually repeats but may differ in a detail not shown here. Equal values may be shown once. Screen size: about 78,000 compounds; about 1,800 (2.3%) were called active. Inconclusive means that the source gave no clear call. Such entries were picked first, then a sample of the others. Cut-off read from the data, not from the text of the source: active = inhibition above about 30%; inconclusive = mostly about 10% to 28%; inactive = weaker than that.
# Biological target: Interleukin-1 receptor-like 1 (Homo sapiens) (UniProt Q01638)
# Assay: blocks human ST2 binding to IL-33, primary screen, biochemical, AlphaLISA (AID 1259354)
# Conditions: AlphaLISA ST2-Fc/biotin-IL-33 interaction, 1 h; at 17 µM, active compounds read high
row,SMILES,inhibition
1,CC(C)Cc1ccc(CN2CCCC(NC(=O)CCc3cnn(C)c3)C2)cc1 (stereo not given),inconclusive: 11%
2,CNc1nc(-c2cc(NC3CCNCC3)nc3[nH]ccc23)nc2c1CCC2,active: 37%
3,COC(=O)[C@@H]1C[C@H](C(=O)NCc2cccnc2)[C@H](c2cccc(F)c2F)N1C,inconclusive: 13%
4,CCCCOC(=O)C1=C(C)Nc2nnnn2C1c1ccccc1F (stereo not given),inactive
5,N#CC1=C(N)n2c(s/c(=C\c3ccc([N+](=O)[O-])cc3)c2=O)=C(C#N)C1c1ccc([N+](=O)[O-])cc1 (stereo not given),inconclusive: 25%
6,O=C(CSc1nc2c(c(=O)n1-c1ccccc1)SCC2)Nc1cccc(F)c1,inconclusive: 15% and inconclusive: 12%
7,COc1ccccc1CNc1ccc2c(c1)ncn2-c1ccccc1OC,inconclusive: 17%
8,Nc1ccccc1-c1nc2ccccc2[nH]c1=O,inconclusive: 21%
9,COCC(c1ccccn1)N(C)Cc1ccnc2ccccc12 (stereo not given),inconclusive: 13%
10,COC(=O)c1cn(C(C)C)cc(C(=O)N2CCOC(C(F)(F)F)C2)c1=O (stereo not given),inactive
11,c1ccc(-c2nnc(CN3CCCC3c3ccccn3)o2)cc1 (stereo not given),inconclusive: 14%
12,CCOc1ccc(NS(=O)(=O)c2cccc3cccnc23)cc1,inconclusive: 16%
13,COc1ccc(C(=O)N2C[C@@H]3C[C@H](C2)[C@@H]2CCCC(=O)N2C3)cc1OC,inconclusive: 14%
14,COc1ccccc1N1C(=O)C2C(c3ccc(C)cc3)NC(Cc3ccccc3)(C(=O)O)C2C1=O (stereo not given),inconclusive: 13%
15,CCCCNC(=O)C1CCCN(S(=O)(=O)CCC)C1 (stereo not given),inconclusive: 11%
16,c1ccc(C2=NC3(CCCC3)N=C2c2ccccc2)cc1,inactive
17,CCc1ccc(C2CC(c3ccc(Cl)cc3)n3ncnc3N2)cc1 (stereo not given),inactive
18,O=C1N=c2ccc(Br)cc2=C1c1sc(=O)n(-c2ccccc2)c1O,inconclusive: 22%
19,Cc1ccc(-c2cc(N3CCN(S(=O)(=O)c4ccc(C)cc4C)CC3)ncn2)cc1,inconclusive: 12%
20,O=C(O)CC1C(=O)NCCN1Cc1ccccn1 (stereo not given),inconclusive: 15%
21,COc1cc(Br)cc(NC(=O)c2ccc([N+](=O)[O-])cc2)c1,inactive
22,N[C@H](CCC(=O)NCS(=O)(=O)O)C(=O)O,active: 85%
23,CCCCN(C)CCNc1ncnc2nc[nH]c12,inconclusive: 15%
24,O=C(Nc1cnc2n1CCCC2)c1cc(-c2ccccc2)on1,inconclusive: 20%

row,SMILES,inhibition
1,COCc1nc(NCc2cnc(C)cn2)c2cnn(C)c2n1,inconclusive: 10%
2,O=C(Nc1ccc(Nc2ccccc2)cc1)c1ccc(Br)o1,inconclusive: 22%
3,CCOc1cccc(C(Nc2cccc(C)n2)c2ccc3ccc(C)nc3c2O)c1 (stereo not given),inconclusive: 11%
4,Cn1nc(-c2ccc(Cl)cc2)c2cc(C(=O)Nc3ccc4c(c3)OCO4)sc21,inactive
5,O=C(Nc1ccc(S(=O)(=O)N2CCCCC2)cc1)c1cc(-c2cccs2)nc2ccccc12,inconclusive: 10%
6,COc1cccc(Cn2nc(C(=O)N3CCCC(O)C3)c3c2CCN(C2CCSC2)C3)c1 (stereo not given),inconclusive: 13%
7,COc1ccc(-c2nc(-c3ccc(O)c(O)c3)[nH]c2-c2ccccc2)cc1OC,inconclusive: 12%
8,CCN(CC)S(=O)(=O)c1cccc(C(=O)Nc2cccc(C(=O)O)c2)c1,inconclusive: 14%
9,CCCn1ccnc1C1CC(=O)Nc2c1c(C)nn2CCC(C)C (stereo not given),inconclusive: 18%
10,CC1CCN(Cc2cc(O)c(CN3CCC(C)CC3)cc2O)CC1,inconclusive: 10%
11,O=[N+]([O-])/C=C/c1cccs1,inconclusive: 15%
12,CC(C)(CC(=O)O)CC(=O)N[C@H]1CO[C@H]2[C@@H]1OC[C@@H]2n1nnnc1Oc1cccc(N2CCOCC2)c1,inactive
13,N#CC(C#N)=C(N)/C(C#N)=C/c1ccc(O)cc1,inconclusive: 16%
14,O=C(CN1C(=O)C2C3C=CC(C3)C2C1=O)Nc1ccc(I)cc1 (stereo not given),inactive
15,Cc1cccc(-n2c(N)c(C#N)c3nc4ccccc4nc32)c1,inconclusive: 11%
16,Cn1c(=O)c2nc(-c3ccc(Br)cc3)oc2c2ccccc21,inactive
17,OCC1CCCN(Cc2ccc3c(c2)Cc2ccccc2-3)C1 (stereo not given),active: 98%
18,Cc1ccc(/C=C(\C#N)c2nc3ccc(C)cc3[nH]2)cc1,active: 32%
19,CCCc1c(C)nc(Nc2nc(C)c3cc(C)ccc3n2)[nH]c1=O,inconclusive: 14%
20,c1ccc2[nH]c(SN3CCOCC3)nc2c1,inconclusive: 17%
21,Cc1ccc(C(=O)/C=C/c2ccc(F)cc2)o1,inconclusive: 18%
22,O=C(N[C@@H]1CN(C(=O)NC2CCCCC2)CCC[C@H]1O)c1ccc(OCc2ccccc2)cc1,inconclusive: 18%
23,CC(C)CC1CC2C(O1)c1ccccc1OC2(C)C (stereo not given),inactive
24,COC(=O)c1cc(C(=O)OC)cc(N2C(=O)C3C4C=CC(C4)C3C2=O)c1 (stereo not given),inactive

# Four of the compounds above, as tab-separated lines:
row	SMILES	inhibition
4	Cn1nc(-c2ccc(Cl)cc2)c2cc(C(=O)Nc3ccc4c(c3)OCO4)sc21	inactive
7	COc1ccc(-c2nc(-c3ccc(O)c(O)c3)[nH]c2-c2ccccc2)cc1OC	inconclusive: 12%
17	OCC1CCCN(Cc2ccc3c(c2)Cc2ccccc2-3)C1 (stereo not given)	active: 98%
21	Cc1ccc(C(=O)/C=C/c2ccc(F)cc2)o1	inconclusive: 18%

# (list continues)

row,SMILES,inhibition
1,Cc1cccc(NC(=O)C2CCN(C(=O)Cc3ccccc3)CC2)c1C,inconclusive: 11%
2,Cc1ccc(-c2noc(CCC(=O)N(C)c3ccc(Cl)cc3)n2)cc1,inactive
3,CC(C)C1C(C#N)=C(N)SC(N)=C1C#N,inconclusive: 18%
4,O=C(CSc1nc2c(c(=O)n1-c1ccc(Cl)cc1)SCC2)N1CCCCCC1,inconclusive: 16%
5,CCOc1cc2c(cc1OCC)C1C(C(=O)NC(C)C)c3ccccc3C(=O)N1CC2 (stereo not given),inconclusive: 22%
6,NCCS(=O)(=O)O,inconclusive: 21%
7,FC(F)(F)CCc1nc(-c2ccccn2)no1,inconclusive: 17%
8,CCCc1nc(C)cc(-c2cc(N)nc3[nH]ccc23)n1,inactive
9,Cc1cc2nnc(SCC(=O)c3ccc4c(c3)OCCO4)n2c2ccccc12,inconclusive: 14%
10,N#Cc1ccccc1N=Cc1ccc(Br)c([N+](=O)[O-])c1,active: 30%
11,COc1ccc(C=Nc2ccc(NC(C)=O)cc2)cc1,inactive
12,Cc1ccc(-n2c(SCC(=O)Nc3ccccc3)nc3c(c2=O)SCC3)cc1,inconclusive: 26%
13,COc1ccccc1N1CCN([C@@H]2[C@H](O)[C@H](CO)O[C@@H]2CNC(=O)c2ccc(C(F)(F)F)cc2)CC1,inconclusive: 12%
14,Cc1[nH]cnc1-c1nccn1Cc1cccnc1,inactive
15,COc1ccc(/C=C2\Sc3ccccc3N(CC(=O)NCCc3ccc(Cl)cc3)C2=O)cc1,inconclusive: 14%
16,O=C(Nc1c2c(nn1-c1ccc(F)cc1)CS(=O)C2)c1cccc(F)c1 (stereo not given),inactive
17,COc1cccc2sc(NC(=O)c3ccc(S(=O)(=O)N4CCc5ccccc54)cc3)nc12,inconclusive: 19%
18,COC(=O)c1ccc(CN2CCC3(CC2)C(=O)N(CCCc2ccncc2)C(=O)N3C)cc1,inconclusive: 21%
19,Cn1ccnc1CN(Cc1ccsc1)CC1CCCO1 (stereo not given),inconclusive: 18%
20,Cc1nnc([C@H]2CCN(Cc3ccc(Cl)cc3)C2)o1,inconclusive: 13%
21,OC[C@H]1O[C@@H](OCCc2ccccc2)[C@H](O[C@@H]2OC[C@](O)(CO)[C@H]2O)[C@@H](O)[C@@H]1O,inactive
22,Nc1nc(N)nc(-c2ccccc2)n1,inconclusive: 11%
23,CCc1cccc(N(CC)C(=O)c2cc3cc4ccc(OC)cc4nc3o2)c1,inconclusive: 14%
24,c1cncc(COC2CCCN(Cc3ccncc3)C2)c1 (stereo not given),inconclusive: 12%

# 3 records drawn at random from the list so far, as already listed:
row,SMILES,inhibition
24,c1cncc(COC2CCCN(Cc3ccncc3)C2)c1 (stereo not given),inconclusive: 12%
10,N#Cc1ccccc1N=Cc1ccc(Br)c([N+](=O)[O-])c1,active: 30%
2,CNc1nc(-c2cc(NC3CCNCC3)nc3[nH]ccc23)nc2c1CCC2,active: 37%

# Later entries.

row,SMILES,inhibition
1,Cc1cccc(Cn2c(=O)n(-c3ccccc3)c(=O)c3sccc32)c1,inactive
2,CCOc1ccc(NC(=O)c2sc3nc(C)nc(N4CCOCC4)c3c2C)cc1,inconclusive: 18%
3,CCOc1nc(N2CCCCC2)nc(N2CCOCC2)n1,inconclusive: 18%
4,Cc1cc2c(cc1[N+](=O)[O-])C(=O)c1cc3ccccc3nc1-2,active: 36%
5,Cc1nn(C)c(C)c1-c1ncnn1-c1sc2c(c1C#N)CCCC2,inconclusive: 28%
6,Cc1cc(C)cc(N(C(=O)c2ccccc2C)C2C=CS(=O)(=O)C2)c1 (stereo not given),inactive
7,O=C(NCc1ccco1)/C(=C/c1ccc2c(c1)OCO2)NC(=O)c1ccc(Br)o1,inactive
8,Cc1nn(C)c(Cl)c1C1CC(=O)Nc2c1c(-c1ccccn1)nn2C (stereo not given),inconclusive: 12%
9,O=C(C1c2ccccc2C(=O)N2CCc3ccccc3C12)N1CCN(C2CCCCC2)CC1 (stereo not given),inactive
10,O=C(CC[C@@H]1CNC(=O)[C@@H]2C[C@H](NC(=O)Nc3ccsc3)CN12)NCc1cccnc1,inconclusive: 13%
11,C[C@@H]1CC2(CCCN2Cc2ccccc2)C[C@H]1C,inactive
12,CCCCNC(=O)CSc1cc(=O)n(C)c2cc(Cl)ccc12,inactive
13,Cn1c2c(c(=O)[nH]c1=O)C(c1ccc(OCc3ccccc3)cc1)C1=C(N2)c2ccccc2C1=O (stereo not given),inconclusive: 26%
14,COc1ccc(CN2CCN(Cc3ccoc3)CC2CCO)c(F)c1 (stereo not given),inactive
15,CCc1ccc(NC(=O)C(=O)NCCN2CCN(C(=O)c3ccc(OC)c(OC)c3)CC2)cc1,inactive
16,CCC1CN(Cc2c(Cl)cncc2Cl)CCN1C(C)C (stereo not given),inconclusive: 10%
17,O=C1Nc2ccccc2C1=Nc1ccc(C(=O)c2ccccc2)cc1,inconclusive: 29%
18,OCc1nn2c(c1Br)NC(c1ccc(Br)o1)CC2C(F)(F)F (stereo not given),inconclusive: 14%
19,Cc1ccc(/C=C/C(=O)Nc2cc3cccc([N+](=O)[O-])c3oc2=O)cc1,inconclusive: 24%
20,COc1ccc(N=c2scc(-c3ccc(OC)cc3F)n2CCO)cc1,inconclusive: 19%
21,CCc1c(C)nc2cc(-c3cccc(Br)c3)[nH]n2c1=O,inconclusive: 27%
22,Cc1cccc(OCC(O)Cn2cnc3ccccc32)c1 (stereo not given),inactive
23,COc1cccc(NC(=O)CCC2CCN(S(=O)(=O)c3ccccc3)CC2)c1,inconclusive: 26%
